From article PMC7819943, “Rice protein-binding microarrays: a tool to detect cis-acting elements near promoter regions in rice” come the findings set out here.

Some of the results follow.

This assay deals with T1, OsSMF1 (Oryza sativa, UniProt Q6ZLB0 1-436).
T1 sequence: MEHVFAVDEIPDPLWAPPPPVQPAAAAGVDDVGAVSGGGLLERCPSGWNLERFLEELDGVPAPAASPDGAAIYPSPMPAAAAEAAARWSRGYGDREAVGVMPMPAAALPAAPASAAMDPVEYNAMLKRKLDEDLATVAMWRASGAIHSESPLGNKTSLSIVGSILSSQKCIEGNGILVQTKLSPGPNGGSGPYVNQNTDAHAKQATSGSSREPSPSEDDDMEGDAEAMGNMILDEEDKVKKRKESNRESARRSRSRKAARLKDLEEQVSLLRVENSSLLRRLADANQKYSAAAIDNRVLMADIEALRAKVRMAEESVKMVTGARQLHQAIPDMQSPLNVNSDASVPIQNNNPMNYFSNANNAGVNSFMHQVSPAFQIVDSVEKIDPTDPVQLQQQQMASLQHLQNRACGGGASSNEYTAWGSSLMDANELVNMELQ
The assay can be described thus: protein-binding microarray (RPBM); PBS, 2% BSA, 51.3 ng/ul salmon testes DNA, 50 uM zinc acetate, 200 nM TF, 25 C, 1 h; high values mean tight binding. Conditions: protein: recombinant; tags: N-terminal polyhistidine and DsRed monomer fusion (pET32a); chain copies: 2; label: CyDye5-dUTP incorporated in the synthesized complementary strand; 3' TTTTT single-stranded linker to array surface; dsDNA, one strand shown. The essentials:
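Ni–NTA purification followed expression in E. coli BL21-CodonPlus of transcription factors fused N-terminally to a polyhistidine tag and DsRed. At 200 nM in PBS with 2% BSA, salmon testes DNA and 50 µM zinc acetate, the protein was incubated for 1 h at 25 °C with a custom Agilent array that had been primer-extended with Cy5-dUTP and blocked with 2% BSA. After washing, the array was read on an Axon 4000B scanner. The binding signal is per-feature fluorescence intensity in arbitrary units.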
Turning to “TGAGGCCAATAGCAGTGCAGGGCACGCTACGCGTGTCTCTCGGAGTCACCTAGTGCAG”, the binding signal is 3220 fluorescence intensity (a.u.). Then “CAGTGCCAGTTGACATAGCGCTGAGGTGTCTAAGTTCAGCCGGAGTCACCTAGTGCAG”, with 5690 fluorescence intensity (a.u.); and “TTTTACAAGTTTTAGGTACTTTCCTTTTATAATTTCAGATCGGAGTCACCTAGTGCAG”, with 16500 fluorescence intensity (a.u.); and “CGTTCCGCCGCTCCGACCTCCGCCTCCTCCTCGGCGTCATCGGAGTCACCTAGTGCAG”, with 4160 fluorescence intensity (a.u.). Take “CCCCGCCCCATGCGCCGTGTCCACACACACACCAAGCCGCCGGAGTCACCTAGTGCAG”: the binding signal was 3310 fluorescence intensity (a.u.). For “ATCCTATTATGATGGTGGCATTCTACCGAAACGGCGACGACGGAGTCACCTAGTGCAG” the value was 4460 fluorescence intensity (a.u.); for “ATCTAAGGAAACTGCTAATGATGTCTTTGGACTGCCAGATCGGAGTCACCTAGTGCAG”, 3520 fluorescence intensity (a.u.); for “GCCAAGTTCGCGACGCCTCCTCCGGCGCCCACCCGTGGCGCGGAGTCACCTAGTGCAG”, 3190 fluorescence intensity (a.u.).

Regarding “TCCAACTCTTTTAAGCTGAACAGGTAGTCATCAGGTTACCCGGAGTCACCTAGTGCAG”, the binding signal was 3750 fluorescence intensity (a.u.). Take “ATTTTCCATGCTGAGATGGACATGCTCCAACTGACTAGGCCGGAGTCACCTAGTGCAG”: the binding signal is 4120 fluorescence intensity (a.u.). For “ATCACTGTTTCGGCCGGCTGCACCGCAGGTCCGCAGCCGCCGGAGTCACCTAGTGCAG”, the binding signal is 15100 fluorescence intensity (a.u.).

On to “CAAAACCACAATAAGGTCGCCACGTAGCGCCCGAGCGGCACGGAGTCACCTAGTGCAG”, for which the binding signal is 4030 fluorescence intensity (a.u.). In the case of “GGTCGCCCGCACGGCTTCGCTGCCGTGGCGGATCCAGTCCCGGAGTCACCTAGTGCAG”, the binding signal was 5850 fluorescence intensity (a.u.). On to “TATGTACCTTTTCCACAGAACCCTCTACTGTGCCAGGTCACGGAGTCACCTAGTGCAG”, for which the binding signal is 15600 fluorescence intensity (a.u.). As to “GCCGCCCCGGTGATGACGCCGACGCCCGTCGTGACGCGCGCGGAGTCACCTAGTGCAG”, the binding signal is 3740 fluorescence intensity (a.u.). For “GGTTGCTGGCTGCTTAGTGGCGGATGGCGACGGCACAGCGCGGAGTCACCTAGTGCAG”, the binding signal was 3490 fluorescence intensity (a.u.). Then “AAGAAACAACACACGTTAGCATTTCACTGCTATTAAGTTCCGGAGTCACCTAGTGCAG”, with 5010 fluorescence intensity (a.u.); and “GCAAGACTTATGACATGCAGTCACGCACCCAAGTCTTTTGCGGAGTCACCTAGTGCAG”, with 3820 fluorescence intensity (a.u.); and “AATTTTCAAAAGAGAAAGGTAGCTGTGTGGTCAAGTTAGCCGGAGTCACCTAGTGCAG”, with 20500 fluorescence intensity (a.u.). For “CGCCTCGCGCCGTTGCCATCGTCATCCGCATCGCCTCGCGCGGAGTCACCTAGTGCAG” the value was 4630 fluorescence intensity (a.u.). Turning to “TATCCTAACGGTGACGTAGTACTTTTGAGCTGTCCTAGGACGGAGTCACCTAGTGCAG”, the binding signal was 5940 fluorescence intensity (a.u.). In the case of “TACAAAGACTTGACCTAGACCATATTTGAGTCACTTTGAGCGGAGTCACCTAGTGCAG”, the binding signal was 3580 fluorescence intensity (a.u.). For “ATTAAAATTATGAAATTTTAATGATTCATTAATCTCAAGACGGAGTCACCTAGTGCAG” the value was 29200 fluorescence intensity (a.u.); for “TTTTGGTGGTTTTGATTTCGGTTTTGTCCGACGTGGCGCTCGGAGTCACCTAGTGCAG”, 22500 fluorescence intensity (a.u.); for “CGACGCGTGCGAGCGTGCGCACCATATGTAGATCGATTGTCGGAGTCACCTAGTGCAG”, 3580 fluorescence intensity (a.u.). For “CCGGCCCAACACCACTAACACGTTCAGCCCCAATCCCCAACGGAGTCACCTAGTGCAG” the value was 42400 fluorescence intensity (a.u.); for “GTGATTATGATGAATAAGAGCAATGACCGGCTTCGGCCAACGGAGTCACCTAGTGCAG”, 3200 fluorescence intensity (a.u.); for “CCGCTCCGTGCGGAAATTGGCGGATCCACCGAAGGTGACCCGGAGTCACCTAGTGCAG”, 21500 fluorescence intensity (a.u.).

With “ATCCCCAAAACTGATTAGAACACGTCGTGTATCGATGGGGCGGAGTCACCTAGTGCAG”, the binding signal was 4170 fluorescence intensity (a.u.). “ATCCTGTTGAAGTAAACTAAGTACTGAATGCTTAGAAAACCGGAGTCACCTAGTGCAG”: the binding signal is 36000 fluorescence intensity (a.u.). Then “CACGAAACACCACACGTCATCGCTGCAGTAAACGCCATCACGGAGTCACCTAGTGCAG”, with 10000 fluorescence intensity (a.u.); and “TGGTGTGCACGTGTATATACACGTGAGAGCCTGTGTGCATCGGAGTCACCTAGTGCAG”, with 4660 fluorescence intensity (a.u.).

Consider “AACATACCTGACACGCTCCCCGTCGATCTCCGCGCCTTCTCGGAGTCACCTAGTGCAG”, for which the binding signal was 3220 fluorescence intensity (a.u.). With “GCCACCCTAAAATGAGTATAGTCGACTAGACGTGTGTGTGCGGAGTCACCTAGTGCAG”, the binding signal is 3560 fluorescence intensity (a.u.). Regarding “AACTGGCGTACGTGGAAGGAACACGGCCACGATATCGTACCGGAGTCACCTAGTGCAG”, the binding signal was 3190 fluorescence intensity (a.u.). Take “CTGTTTGAACAAGTGCACGTACGTACTCCGCTTATTAGTTCGGAGTCACCTAGTGCAG”: the binding signal was 3730 fluorescence intensity (a.u.). Regarding “AGGGACGATTTTGTAATTCGATGACAAGTTGAGAGAACTTCGGAGTCACCTAGTGCAG”, the binding signal is 3680 fluorescence intensity (a.u.).

For the sequence “GACTGTACACATGAAGGAACATATGTGCTGAAATACTGTACGGAGTCACCTAGTGCAG”, the binding signal was 26100 fluorescence intensity (a.u.).

With “GGATATGGACACCTCAACGAACTGACCCGTACGCCCGCACCGGAGTCACCTAGTGCAG”, the binding signal is 4010 fluorescence intensity (a.u.). For “GGCGTGCGAGTCACGTGACCCACGTGCCAAACTGCCTCTTCGGAGTCACCTAGTGCAG” the value was 5300 fluorescence intensity (a.u.); for “ATTCGTCTGAAAATTGTGTTTCACATGCGTCATTTCTCTACGGAGTCACCTAGTGCAG”, 5080 fluorescence intensity (a.u.). For “CCTGCTCCGGTGGCAGCTGCGGCGGATCCGAGTCCCATCCCGGAGTCACCTAGTGCAG”, the binding signal was 3460 fluorescence intensity (a.u.). For the sequence “AAGTCGAAGAAGGGGAACCCCTCCTCCAACCCGGGCCTCTCGGAGTCACCTAGTGCAG”, the binding signal is 3140 fluorescence intensity (a.u.). With “CTCTCTGCCATCTCATCCACAGTGACCTCTCTCTCCAAGACGGAGTCACCTAGTGCAG”, the binding signal is 4170 fluorescence intensity (a.u.). On to “CTCCGGCCGGCCACTCCCCTCCACGGAGAACTTTCCCCGACGGAGTCACCTAGTGCAG”, for which the binding signal was 20800 fluorescence intensity (a.u.). For the sequence “AACAAAATCTCATCATCCCCTCTCGCTCTAGCATATGTCGCGGAGTCACCTAGTGCAG”, the binding signal is 3470 fluorescence intensity (a.u.). With “AATGGTTGAATCAAATACTACCAGTACCGGTCTGATGCCACGGAGTCACCTAGTGCAG”, the binding signal is 3270 fluorescence intensity (a.u.).

Turning to “GCAGTGCCGCCCCTACGTCACGCGCGGGGACTGCGTCGCGCGGAGTCACCTAGTGCAG”, the binding signal is 5020 fluorescence intensity (a.u.). As for “TTGTGAATAAAACTTTTATATACGTGTTCTTAGTGATCTACGGAGTCACCTAGTGCAG”, the binding signal is 3230 fluorescence intensity (a.u.). As for “AGTTGCTTGTATATATGCTGAAGTAAGAAGTGAACTGTCGCGGAGTCACCTAGTGCAG”, the binding signal was 3520 fluorescence intensity (a.u.). For “AACAGGAAGGCGCACCGGAGGACACGTACCACGGCGGAGCCGGAGTCACCTAGTGCAG” the value was 4240 fluorescence intensity (a.u.); for “GCTGTCGTGGACCTTGCCGCGTCGCGACACGTCAGCCCGACGGAGTCACCTAGTGCAG”, 25700 fluorescence intensity (a.u.); for “CTATGGTGTTGTGATTTGTGAATACTAAAACTAACTTCTCCGGAGTCACCTAGTGCAG”, 4130 fluorescence intensity (a.u.). Then “GCAGAAACACGTCAATCTTGTGCTCTTGTCATCAATATTTCGGAGTCACCTAGTGCAG”, with 6390 fluorescence intensity (a.u.).
